Data set [1] deals with T1, dCREB2-b (Drosophila melanogaster) (UniProt Q9VWW0).
T1 sequence (limits assumed): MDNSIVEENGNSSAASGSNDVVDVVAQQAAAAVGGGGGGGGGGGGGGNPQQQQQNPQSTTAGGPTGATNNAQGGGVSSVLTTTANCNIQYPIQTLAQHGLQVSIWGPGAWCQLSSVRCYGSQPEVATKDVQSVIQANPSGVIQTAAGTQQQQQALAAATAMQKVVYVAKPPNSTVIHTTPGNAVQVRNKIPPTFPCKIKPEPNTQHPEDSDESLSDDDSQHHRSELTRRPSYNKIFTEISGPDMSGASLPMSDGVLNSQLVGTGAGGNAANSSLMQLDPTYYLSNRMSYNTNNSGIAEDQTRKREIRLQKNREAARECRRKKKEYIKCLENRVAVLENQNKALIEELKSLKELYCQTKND
The data set can be described thus: EMSA. The settings on record: purified recombinant protein, label: 32P 5' end.

In data set [2] the target is T1, dCREB2-b (Drosophila melanogaster). The data set can be described thus: binding assay. The settings on record: DNA-binding screen of phage expression library on filters (phage-expressed protein); purified recombinant protein; label: 32P Klenow fill-in.
Data set [3] has the same target. The data set can be described thus: competition with a labelled probe. As to conditions: nonspecific competitor versus 3xCRE probe; purified recombinant protein.

For at least one entry, the source does not settle the construct or the ends of the probe. For some assays here: The comparison behind a weaker result is the experiment's own reference, which may not be listed here. Where a protein sequence is shown, tags need not be part of it.

Take “AAATGAATTAACGGAAATGAATTAACGGAAATGAATTAACGG (double strand) [3xmCRE]”: in data set [1] (lower but detectable affinity than 3xCRE, variant of 3xCRE), the binding result is “binds more weakly”.
Take “AAATGACGTAACGGAAATGACGTAACGGAAATGACGTAACG (double strand) [3xCRE]”: the binding result in data set [1] (gel with 3 mM MgCl2, Tris-glycine) is “binds”.
With “CGTCTAGATCTATGACTGAATATGACGTAATATGACGTAATGGTACCAGATCTGGCC (double strand) [3xCRE cloning/screening probe]”, in data set [2], the binding result is given as “binds”.
On to “CTAGAGCTTGCAAGCATGCTTGCAAGCAAGCATGCTTGCAAGCATGCTTGCAAGC (double strand) [Nonspecific competitor #3]”, for which the binding result in data set [3] is reported as “binds more weakly”.
The same measure, in the same setting: as for “CTCTAGAGCGTACGCAAGCGTACGCAAGCGTACG (double strand) [Nonspecific competitor #4]”, the entry is “binds more weakly”.

These data come from patent US5929223.
